Patent publication US20250075190A1, “DE NOVO DESIGNED LUCIFERASE” (UNIVERSITY OF WASHINGTON, priority 2022, published 2025)

B1: LuxSit: de novo designed DTZ luciferase, 117 residues, SEQ ID NO:1 (protein)
chain: MSEEQIRQFLRRFYEALDSGDADTAASLFHPGVTIHLWDGVTFTSREEFREWFERLFSTRKDAQREIKSLEVRGDTVEVHVQLHATHNGQKHTVDATHHWHFRGNRVTEMRVHINPTG
modifications: VARIANT 1 optionally absent; VARIANT 118 optionally absent
B2: A96M: LuxSit mutant A96M (protein)
chain: B1 chain with A96M
modifications: VARIANT 1 optionally absent; VARIANT 118 optionally absent
B3: M110V: LuxSit mutant M110V (protein)
chain: B1 chain with M110V
modifications: VARIANT 1 optionally absent; VARIANT 118 optionally absent
B4: LuxSit-f: LuxSit variant A96M/M110V, SEQ ID NO:3, strong initial flash emission (protein)
chain: B1 chain with A96M, M110V
modifications: VARIANT 1 optionally absent; VARIANT 118 optionally absent
B5: LuxSit-i: LuxSit variant R60S/A96L/M110V, SEQ ID NO:2, named for high brightness (protein)
chain: B1 chain with R60S, A96L, M110V
modifications: VARIANT 1 optionally absent; VARIANT 118 optionally absent

experiment: Luminescence emission spectra of pure luciferases; type: biochemical; settings: incubation with DTZ

B1 showed a luminescence emission peak of roughly 480 nm.

same assay, conditions: luminescence emission with DTZ

Compared with B1, B2 is lower in λmax: 478 nm for the first, 476 nm for the second.

B3 and B4 are the same in λmax: 480 nm for the first, 480 nm for the second.

Molecule B5 has a λmax of 482 nm.

Positions count from the first letter of the chain named. Names may count otherwise.
